Here are results for two molecules from article PMC10803263, “General transcription factor from Escherichia coli with a distinct mechanism of action” (Nature Structural & Molecular Biology, 2023).

By UniProt entry, the sequences of proteins in these tests, tags left out.
UniProt P0AE60: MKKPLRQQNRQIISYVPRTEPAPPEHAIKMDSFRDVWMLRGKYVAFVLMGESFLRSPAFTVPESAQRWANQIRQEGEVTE
UniProt P0A8T7: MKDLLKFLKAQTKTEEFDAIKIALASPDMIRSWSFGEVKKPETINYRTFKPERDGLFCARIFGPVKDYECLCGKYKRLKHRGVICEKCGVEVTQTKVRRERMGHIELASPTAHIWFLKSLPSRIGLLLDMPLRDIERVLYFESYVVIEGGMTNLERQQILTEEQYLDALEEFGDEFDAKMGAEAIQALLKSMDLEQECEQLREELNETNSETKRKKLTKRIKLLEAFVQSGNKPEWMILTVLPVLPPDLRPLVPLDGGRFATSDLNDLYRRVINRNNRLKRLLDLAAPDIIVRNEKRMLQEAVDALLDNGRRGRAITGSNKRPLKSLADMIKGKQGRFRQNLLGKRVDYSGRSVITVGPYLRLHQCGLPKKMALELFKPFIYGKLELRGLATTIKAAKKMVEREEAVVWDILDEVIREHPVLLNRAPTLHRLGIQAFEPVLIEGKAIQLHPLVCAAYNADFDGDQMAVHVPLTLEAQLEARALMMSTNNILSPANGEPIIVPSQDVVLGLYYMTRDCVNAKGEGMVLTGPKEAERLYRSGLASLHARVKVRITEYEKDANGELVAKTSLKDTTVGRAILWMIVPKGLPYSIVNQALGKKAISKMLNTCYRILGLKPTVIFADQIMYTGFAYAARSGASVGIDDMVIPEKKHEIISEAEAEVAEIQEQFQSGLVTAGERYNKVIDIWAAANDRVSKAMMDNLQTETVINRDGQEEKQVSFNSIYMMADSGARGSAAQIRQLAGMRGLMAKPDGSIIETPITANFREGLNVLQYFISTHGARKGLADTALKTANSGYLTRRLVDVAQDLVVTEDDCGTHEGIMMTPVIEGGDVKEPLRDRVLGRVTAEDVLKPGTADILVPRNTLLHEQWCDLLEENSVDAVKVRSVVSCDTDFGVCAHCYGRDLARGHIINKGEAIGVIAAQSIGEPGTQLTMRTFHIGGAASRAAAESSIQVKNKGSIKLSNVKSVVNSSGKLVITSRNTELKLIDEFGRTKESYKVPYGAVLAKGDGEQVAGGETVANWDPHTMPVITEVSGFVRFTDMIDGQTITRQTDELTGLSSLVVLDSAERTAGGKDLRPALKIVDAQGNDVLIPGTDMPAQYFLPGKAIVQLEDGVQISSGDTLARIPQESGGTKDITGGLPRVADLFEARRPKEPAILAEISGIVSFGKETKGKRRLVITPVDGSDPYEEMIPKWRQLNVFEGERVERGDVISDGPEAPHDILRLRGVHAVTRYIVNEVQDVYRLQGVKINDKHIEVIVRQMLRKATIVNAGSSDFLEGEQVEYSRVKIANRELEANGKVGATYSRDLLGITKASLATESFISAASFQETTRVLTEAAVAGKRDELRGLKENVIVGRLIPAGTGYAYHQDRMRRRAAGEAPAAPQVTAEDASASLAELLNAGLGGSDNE

Test [1] has as its target CedA, chromosomally 3× FLAG-tagged (E. coli (endogenous in MG1655)) (UniProt P0AE60). Put plainly: affinity purification with mass spectrometry; in vivo crosslinking with 0.3% formaldehyde for 10 min; chromosomally 3× FLAG-tagged bait (RpoC or CedA) captured on anti-DYKDDDDK magnetic agarose, washed with 500 mM NaCl, 0.1% Triton X-100; on-beads trypsin digestion, LC-MS; proteins ranked by abundance, specificity (against untagged strain) and enrichment (against lysate), top 2% combined rank, three replicates.

Test [2] deals with RNA polymerase β′ subunit (RpoC), chromosomally 3× FLAG-tagged (E. coli (endogenous in MG1655)) (UniProt P0A8T7). The test is described as above.

These are yes or no findings as the source states them, for the method shown. In cells and extracts the contact can be indirect. These calls come from enrichment with a bait or labelling near it, and not all partners need be listed.

B1: stringent starvation protein A (SspA), endogenous (protein, UniProt P0ACA3 1-212)
chain: MAVAANKRSVMTLFSGPTDIYSHQVRIVLAEKGVSFEIEHVEKDNPPQDLIDLNPNQSVPTLVDRELTLWESRIIMEYLDERFPHPPLMPVYPVARGESRLYMHRIEKDWYTLMNTIINGSASEADAARKQLREELLAIAPVFGQKPYFLSDEFSLVDCYLAPLLWRLPQLGIEFSGPGAKELKGYMTRVFERDSFLASLTEAEREMRLGRS
Consider B1, for which, in test [1], the binding entry is recorded as “binds”.

B2: sigma factor FecI, endogenous (protein, UniProt P23484 1-173)
chain: MSDRATTTASLTFESLYGTHHGWLKSWLTRKLQSAFDADDIAQDTFLRVMVSETLSTIRDPRSFLCTIAKRVMVDLFRRNALEKAYLEMLALMPEGGAPSPEERESQLETLQLLDSMLDGLNGKTREAFLLSQLDGLTYSEIAHKLGVSISSVKKYVAKAVEHCLLFRLEYGL
On to B2, for which, in test [2], the binding entry was “binds”.
